Results are given in words; binding and its absence hold for the method and conditions named. Binding calls can cover weak binding; strength is not graded here.
Molecular target: ProMMP‐13 (UniProt P45452)
Test: static platelet adhesion assay; plates coated with 10 μg/ml MMP-13 variants, fibrinogen or peptides, blocked with 5% BSA; washed platelets (healthy donor or αIIbβ3-null Glanzmann) added with 2 mmol L^-1 Mg2+ or EDTA, with or without pre-incubation with receptor antagonists; A405; only the target purified

Sequences of proteins named here, by UniProt entry; tags and fusion partners are left off. Residues count along the entry.
UniProt Q9HCN6, residues 21-339: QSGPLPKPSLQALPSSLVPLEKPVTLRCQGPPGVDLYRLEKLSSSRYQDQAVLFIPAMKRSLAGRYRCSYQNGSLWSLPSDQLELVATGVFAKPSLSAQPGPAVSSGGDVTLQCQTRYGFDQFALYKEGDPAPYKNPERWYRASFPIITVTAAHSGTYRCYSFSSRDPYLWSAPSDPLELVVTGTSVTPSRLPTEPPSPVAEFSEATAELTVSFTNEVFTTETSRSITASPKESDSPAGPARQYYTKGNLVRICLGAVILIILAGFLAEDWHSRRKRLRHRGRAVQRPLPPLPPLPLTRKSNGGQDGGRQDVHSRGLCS

Row | binding | Substance
1 | binds | integrin αIIbβ3 on platelets (from UniProt P08514 32-1039; P05106 27-788) (receptor)
2 | binds | platelet glycoprotein (GP)VI on platelets (from UniProt Q9HCN6 21-339) (receptor)
